# Test results reported in PubChem BioAssay AID1487 (National Center for Advancing Translational Sciences (NCATS), 2009).
# This is one part of the list. These are further read-outs of the screen, such as a control signal, another cell line or another target. No call is given for them. Compounds called inactive in the main read-out are mostly missing here. Words in brackets tell the shape of the fitted curve; partial curves, single points and poor fits give uncertain potencies.
# Experiment: qHTS Assay for Modulators of Lamin A Splicing
# Conditions: HeLa LMNA splicing GFP/RFP minigene ratio, 48 h
# Method in brief: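 S3 HeLa cells stably expressing lamin A-EGFP splicing minigene plus DsRed2, 600 cells/well, 48 h compound exposure at 37C. Laser-scanning cytometry; analysed as GFP (500-530 nm)/RFP (575-640 nm) total intensity ratio; 0.5% DMSO vehicle.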
# [1] = measured here: GFP splicing reporter channel
# [2] = measured here: RFP viability control channel
SMILES,AC50 [1],AC50 [2]
CC(C)c1onc(C(=O)N2CCN(Cc3ccccc3)CC2)c1[N+](=O)[O-],"0.00501 µM [falling, full curve, poor fit]",
Nc1nc2c(s1)CC(c1ccccc1)CC2 (stereo not drawn),"25.1 µM [rising, single point]","31.6 µM [rising, single point]"
CCOc1ccc(NC(=O)c2sc3nc4n(c(=O)c3c2C)CCC4)cc1,,"7.08 µM [rising, partial curve]"
O=C(Nc1ccccc1F)C1CCCN(S(=O)(=O)c2ccccc2)C1 (stereo not drawn),,"0.0158 µM [rising, full curve, poor fit]"
COc1ccc(CN2CCC(C(=O)N3CCCC(C)C3)CC2)cc1OC (stereo not drawn),,"0.0282 µM [rising, full curve, poor fit]"
CC(C1CC1)N(Cc1ccccc1)C(=S)Nc1cccc(C(F)(F)F)c1 (stereo not drawn),"35.5 µM [rising, single point]","31.6 µM [rising, single point]"
O=S(=O)(Nc1ccc2cn[nH]c2c1)c1ccc(Cl)s1,"1.41 µM [falling, full curve, poor fit]",
Cc1cc(=O)[nH]c(SCC(=O)NC(C)C2CC3CCC2C3)c1C#N (stereo not drawn),"14.1 µM [falling, single point]",
COc1ccc(CCn2c(C)cc3c(c2=O)C(c2ccc4c(c2)OCO4)C(C#N)=C(N)O3)cc1OC (stereo not drawn),,"12.6 µM [rising, single point]"
COc1ccccc1CNC(=O)C(=O)NCC(c1cccs1)S(=O)(=O)c1ccccc1 (stereo not drawn),"3.55 µM [rising, partial curve, poor fit]",
COC(=O)C1=C(C(=O)OC)[C@@H]2N(C)c3ccc(OC)cc3[C@@]23C[C@@H](C(=O)OC)N(C(=O)COCc2ccccc2)C3=N1,,"0.001 µM [falling, full curve, poor fit]"
COc1ccc(NS(=O)(=O)c2ccc(Cl)c(N)c2)cc1Br,,"10 µM [rising, partial curve, poor fit]"
CCCSc1nsc(N)n1,"2.82 µM [falling, single point]","5.62 µM [falling, single point]"
O=[N+]([O-])c1ccc(COc2cccc(CNc3ccc(F)cc3)c2)cc1,,"35.5 µM [rising, single point]"
O=C(Cc1ccc(-n2cccc2)cc1)NCc1ccccc1Cl,,"35.5 µM [rising, single point]"
Cc1cccc(C(=O)Nc2nnc(S(=O)(=O)N(C)Cc3ccccc3)s2)c1,"12.6 µM [falling, partial curve]",
COc1ccc(CCNC(=O)CN(c2cc([N+](=O)[O-])ccc2OC)S(C)(=O)=O)cc1,"0.00316 µM [falling, full curve, poor fit]",
CCOc1ccc(CNC(=O)c2ccc(Sc3ccc(C)cc3)c(NC(C)=O)c2)cc1,"14.1 µM [rising, partial curve]","20 µM [rising, single point]"
COc1cc(C(NC(C)=O)NC(C)=O)ccc1OCc1ccccc1,"0.355 µM [falling, full curve, poor fit]",

# Some values from the results shown.
# AC50 [2] with O=C(Nc1ccccc1F)C1CCCN(S(=O)(=O)c2ccccc2)C1 (stereo not drawn) is entered as 0.0158 µM [rising, full curve, poor fit]
# AC50 [1] with COc1ccccc1CNC(=O)C(=O)NCC(c1cccs1)S(=O)(=O)c1ccccc1 (stereo not drawn) is entered as 3.55 µM [rising, partial curve, poor fit]

# Remaining list, next part:

SMILES,AC50 [1],AC50 [2]
COc1ccc(-n2cnc3cc(NCc4cccs4)ccc32)cc1,,"22.4 µM [rising, single point]"
CCOc1ccc(OCC)c(NC(=O)c2cc(S(=O)(=O)N3CCc4ccccc43)cn2C)c1,,"3.55 µM [rising, partial curve]"
C=CCOc1c(Br)cc(/C=N/n2c(CC)n[nH]c2=S)cc1Br,"35.5 µM [rising, single point]","0.0141 µM [rising, full curve, poor fit]"
C1CCc2nnnn2CC1,"0.501 µM [rising, full curve, poor fit]",
CCN(CC)S(=O)(=O)c1cc([N+](=O)[O-])ccc1NNC(=O)Nc1ccc(F)cc1,,"11.2 µM [rising, single point]"
Cc1cc(C)cc(OCC(=O)NNC(=O)C2CCCO2)c1 (stereo not drawn),,"3.98 µM [falling, partial curve]"
COc1ccccc1/C=C/C(=O)c1c2c(c(C)[nH]c1=O)CCCC2,"4.47 µM [falling, partial curve]","22.4 µM [falling, partial curve]"
CN(C)c1ncnc2c1ncn2C1OC(CO)C(O)C1O (stereo not drawn),"1.78 µM [falling, partial curve]","10 µM [falling, partial curve]"
NS(=O)(=O)c1ccc(NC(=O)C2(c3ccccc3)CCCC2)cc1,"0.0251 µM [falling, full curve]",
O=C(c1ccc(Cn2cc(Cl)cn2)o1)N1CCN(Cc2ccc3c(c2)OCO3)CC1,"15.8 µM [rising, partial curve]","17.8 µM [rising, partial curve, poor fit]"
COC(=O)c1c(NC(=O)COC(=O)c2ccc(C)s2)sc2c1CCCCC2,"6.31 µM [falling, partial curve, poor fit]",
CCN1C(=O)C(CC(=O)Nc2ccc(F)cc2)N(Cc2ccc3c(c2)OCO3)C1=S (stereo not drawn),"1 µM [rising, full curve, poor fit]","14.1 µM [rising, partial curve]"
Cc1nn(C)cc1CNC(=O)COc1ccc(Cl)cc1Cl,,"15.8 µM [rising, partial curve]"
COc1cc(C(=O)O)nc(OC)n1,,"3.98 µM [falling, single point]"
Cc1ccc(-n2c(SCc3ccccc3F)nc3[nH]ncc3c2=O)cc1Cl,,"0.0112 µM [rising, full curve, poor fit]"
O=C1Nc2ccccc2Oc2cc([N+](=O)[O-])cc(Oc3ccccc3)c21,"6.31 µM [rising, full curve, poor fit]","12.6 µM [rising, partial curve]"
Cc1ccc2nc(NC(=O)CSc3[nH]c(=O)ncc3C)sc2c1,"15.8 µM [falling, partial curve, poor fit]",
O=Nc1ccc2oc(=O)ccc2c1,"35.5 µM [falling, single point]","22.4 µM [falling, partial curve]"
